For two compounds, Odor results are on record in patent US10010493B2, “Ester compound, and cosmetic component and cosmetic product each containing same” (Kokyu Alcohol Kogyo Co., Ltd., priority 2014, dated 2018).

The data set can be described thus: Odor judgement of TCD esters.

Each structure is given as a SMILES string.

On to `CC(=O)OCC1CC2CC1C1CCCC21` (centres unmarked) [Synthesis Example A, tricyclo[5.2.1.0^2,6]deca-8-yl-methyl acetate, reference compound], for which the Odor result is “strong odor”.
Take `CC(C)C(=O)OCC1CC2CC1C1CCCC21` (centres unmarked) [TCDIB, tricyclo[5.2.1.0^2,6]deca-8-yl-methyl isobutanoate]: the Odor entry is listed as “slight odor”.
